Data: PubChem BioAssay AID540276 (National Center for Advancing Translational Sciences (NCATS), 2011)
Values joined by “and” are separate entries in the source; they are usually repeats but may differ in a detail not shown here. Equal entries are not always repeated. Among all 300,000 compounds or so, about 5,400 (1.8%) were called active. This list was built around the results that the source calls inconclusive (neither active nor inactive); the mix of calls is not that of the screen. The call rests on the fitted dose curve; tested in HEK293 cells. Potencies beside an inconclusive call are fits to weak or partial responses and may not hold up.
On the % scale 0 is the no-effect control and ±100 the full control effect; potency means the concentration at half of the fitted maximal effect.

Assay: qHTS for inhibitors of binding or entry into cells for Marburg Virus
Settings: Marburg virus pseudotyped entry inhibition, cell reporter; activity change, negative = inhibition: at 37.8 µM (top of the series) unless noted
In the case of `C(=NOCc1ccccc1)c1cccnc1`, the Potency was inconclusive: 0.631 µM [activator, full curve]. For `O=S(=O)(c1ccc2ccccc2c1)N1CCN(C(=S)Nc2ccc(F)cc2)CC1`, the Potency was inconclusive: 25.1 µM [inhibitor, partial curve, poor fit]. For `COCCN(Cc1cc2cc(C)ccc2n2nnnc12)C(=S)Nc1cccc(C)c1`, the Potency was inconclusive: 0.103 µM [inhibitor, full curve, poor fit]. For `CCCc1c(O)nc(SCC(=O)NCCc2ccc(OC)c(OC)c2)[nH]c1=O`, the Potency was “inactive”. In the case of `COC(=O)c1cc(-c2ccc(F)cc2)n(-c2ccccc2)n1`, the Potency was inconclusive: 7.08 µM [inhibitor, partial curve, poor fit]. In the case of `O=C(c1ccc(S(=O)(=O)N2CCCC2)cc1)N1CCN(c2cccc(Cl)c2)CC1`, the Potency was inconclusive: 14.1 µM [inhibitor, single point]. For `N#C/C(=C\N1CCOCC1)c1ccccc1`, the “activity change, negative = inhibition” value was inactive: 10.5%. For `CCCCn1cc(S(=O)(=O)c2cc(C)ccc2C)c(=O)c2cc(F)c(F)cc21`, the “activity change, negative = inhibition” value was inactive: 0.359% [at 46.1 µM]. With `N#Cc1cccc(Cn2cc(C(F)(F)F)ccc2=O)c1` the Potency was inconclusive: 0.631 µM [activator, partial curve, poor fit]. For `Oc1cccc2ccc(/C=C/c3ccccc3Br)nc12`, the Potency was inconclusive: 35.5 µM [inhibitor, partial curve, poor fit]. In the case of `C=CCN(c1ccccc1C(=O)NCC(=O)O)S(=O)(=O)c1ccc(C)cc1`, the Potency was inconclusive: 5.62 µM [inhibitor, single point]. For `Cc1ccccc1NC(=O)Cn1c(=O)n(CCc2ccccc2)c(=O)c2ccccc21`, the Potency was inconclusive: 6.31 µM [inhibitor, single point]. In the case of `CC1CCN(c2nc(NCc3ccco3)nc(N)c2[N+](=O)[O-])CC1`, the “activity change, negative = inhibition” value was inactive: -18.7%. With `Cc1ccc(OCc2ccc(C(=O)Nc3c(C)nn(Cc4c(F)c(F)c(F)c(F)c4F)c3C)o2)c([N+](=O)[O-])c1` the Potency was active: 16.4 µM. In the case of `Cc1ccc2c(CC(=O)NNC(=O)c3ccccc3)coc2c1`, the “activity change, negative = inhibition” value was inactive: 1.82%. In the case of `CNC(=O)/C(C#N)=C\c1ccc(CNS(=O)(=O)c2ccc(Cl)cc2)o1`, the Potency was inconclusive: 3.98 µM [activator, single point]. In the case of `COc1ccc2c(c1)[C@@]1(OCCC=C[C@@H]1C)C(=O)N2CC=C(C)CCC=C(C)C`, the “activity change, negative = inhibition” value was inactive: -9.99% [at 14.2 µM]. For `C=CCn1cnc2c(NCc3ccccc3)ncnc21`, the Potency was inconclusive: 35.5 µM [activator, single point]. For `O=C(O)c1ccc(N/N=C/c2cn(Cc3ccc(F)cc3)c3ccccc23)cc1`, the “activity change, negative = inhibition” value was inactive: 0.679%. In the case of `O=c1oc2ccccc2c(N2CCN(c3ccc(F)cc3)CC2)c1CN1CCCC1`, the Potency was inconclusive: 35.5 µM [inhibitor, single point]. In the case of `Cc1c(CC(C)C)nc(N)c(C#N)c1-c1ccccc1`, the Potency was inconclusive: 35.5 µM [inhibitor, single point]. In the case of `COc1ccc(OC)c(Nc2sc(C(=O)c3ccccc3)c(N)c2S(=O)(=O)c2ccccc2)c1`, the Potency was inconclusive: 35.5 µM [inhibitor, single point]. With `CCn1ccnc1CNC(=O)C1CCC(=O)N(Cc2ccccc2F)C1` (stereo not given) the “activity change, negative = inhibition” value was inactive: 4.42%. For `OC(COCc1cccs1)CN1CCCCCC1` (stereo not given), the “activity change, negative = inhibition” value was inactive: 11.9%. In the case of `C[C@]1(C(=O)NCCCNc2ncc(C(F)(F)F)cc2Cl)C=C[C@@H](Cc2ccccc2)N1C(=O)c1ccccc1`, the Potency was inconclusive: 18.4 µM [inhibitor, single point]. For `Cc1ncc2c(n1)-c1cc(F)ccc1SC2`, the Potency was inconclusive: 14.1 µM [inhibitor, single point]. For `COC(=O)c1ccc(CSc2ncnc3sc(C)c(C)c23)o1`, the Potency was inconclusive: 29.1 µM [inhibitor, single point]. In the case of `CCCN1CCO[C@@H]2c3cc(O)ccc3OC[C@H]21`, the Potency was inconclusive: 3.98 µM [inhibitor, full curve] and inconclusive: 56.2 nM [inhibitor, full curve, poor fit]. In the case of `CCOC(=O)N1CCc2c(sc(NC(=O)CN3CCN(C)CC3)c2C(=O)Nc2ccccc2)C1`, the Potency was inconclusive: 3.98 µM [inhibitor, full curve]. With `COc1cc(C2N(c3ccccc3)CCN2c2ccccc2)ccc1OC(C)=O` the “activity change, negative = inhibition” value was inactive: 12.5% [at 46.1 µM]. For `CC12CCC(C(=O)Nc3nc4ccccc4s3)(OC1=O)C2(C)C` (stereo not given), the Potency was inconclusive: 3.55 µM [activator, partial curve, poor fit]. In the case of `O=C(O)CC1(CC(=O)N2CCC(C(=O)O)CC2)CCCC1`, the “activity change, negative = inhibition” value was inactive: 3.47% [at 46.1 µM]. For `CCCc1ccc(OCc2ccc(C(=O)O)o2)c(OC)c1`, the Potency was inconclusive: 6.31 µM [inhibitor, partial curve, poor fit]. For `O=C(CCCC(=O)OCC(F)(F)C(F)F)Nc1ccccc1F`, the Potency was inconclusive: 3.16 µM [activator, single point]. With `CCC(C)c1ccc(NC(=S)NCCn2cc(Cl)cn2)cc1` (stereo not given) the Potency was inconclusive: 14.1 µM [inhibitor, single point]. With `Cc1cc(CN2CCC(N3CCC(C(=O)NC4CC4)CC3)CC2)cc(C)c1O` the “activity change, negative = inhibition” value was inactive: -18%. For `CCCCCCCCCCOC(=O)C[N+](C)(C)CC1CCCCC1O` (stereo not given), the Potency was inconclusive: 2.24 µM [activator, partial curve, poor fit]. With `CC(=O)Nc1sc2c(c1CN1CCN(c3ccc(F)cc3)CC1)CCCC2` the Potency was active: 10 µM. For `O=C(N/N=C\c1cn[nH]c1-c1ccccc1)c1cccs1`, the “activity change, negative = inhibition” value was inactive: 7.2%. In the case of `COC(=O)c1ccccc1NC(=O)CCCn1nc([N+](=O)[O-])cc1C`, the “activity change, negative = inhibition” value was inactive: 8.55% [at 46.1 µM]. For `O=C(NC1CCCCC1)C(c1ccccc1)N(Cc1ccco1)C(=O)Cn1cnc2ccccc21` (stereo not given), the “activity change, negative = inhibition” value was inactive: -27.6%. For `N#Cc1cc(C(=O)c2cc(F)ccc2O)cn(Cc2ccccc2)c1=O`, the Potency was inconclusive: 7.08 µM [inhibitor, partial curve, poor fit]. In the case of `CCn1c(SCC(=O)N2CCOCC2)nnc1-c1cccs1`, the “activity change, negative = inhibition” value was inactive: 4.74% [at 46.1 µM]. For `CC(NC(=O)/C=C/c1ccccc1)c1ccccc1` (stereo not given), the Potency was inconclusive: 10 µM [inhibitor, partial curve, poor fit]. With `CCN(CC)S(=O)(=O)c1ccc(C)c(NC(=O)CNc2cccc(S(=O)(=O)N3CCCC3)c2)c1` the “activity change, negative = inhibition” value was inactive: -21.4%. In the case of `C/C(=C\C(=O)c1ccc(Cl)cc1)Nc1ccc(N2CCOCC2)cc1`, the Potency was inconclusive: 35.5 µM [inhibitor, single point]. With `CCc1ccc(/C=N/NC(=O)c2cc(-c3ccccc3OC)nc3ccccc23)s1` the Potency was inconclusive: 22.4 µM [inhibitor, single point]. In the case of `Cc1cccc(C)c1NC(=O)c1c(-c2ccccc2)noc1C`, the “activity change, negative = inhibition” value was inactive: -18.3%. For `Cc1ccc(CN2CCc3c(OCc4ccc(F)cc4)cccc3C2=O)cc1`, the Potency was inconclusive: 11.2 µM [inhibitor, partial curve, poor fit]. With `COc1ccccc1N1CCN(C(=O)Nc2cccc(C)c2)CC1` the Potency was inconclusive: 8.91 µM [activator, partial curve]. With `CCCCc1ccc(NC(=O)c2ccc3c(c2)CCN3S(=O)(=O)CC)cc1` the “activity change, negative = inhibition” value was inactive: 1.29% [at 46.1 µM]. For `CCOC(=O)c1cc(C(=O)Nc2ccccc2F)nn1C`, the Potency was inconclusive: 1.83 µM [activator, single point]. With `CCOc1ccc(OCCCC(=O)NC2=NCCS2)cc1` the “activity change, negative = inhibition” value was inactive: 5.93%. In the case of `CCCCC1=CC2=C(c3ccco3)C(=O)C(C)(OC(=O)c3ccc(OC)cc3)C(=O)C2=CN1Cc1ccco1` (stereo not given), the Potency was inconclusive: 0.841 µM [inhibitor, partial curve, poor fit]. For `O=S1c2ccccc2Sc2ccccc21`, the “activity change, negative = inhibition” value was inactive: 27.6%. For `CCCCOC(=O)Cn1c2ccc(OC)cc2c2nc3ccccc3nc21`, the Potency was inconclusive: 32.6 µM [inhibitor, single point]. In the case of `CC(C)NC[C@H](O)c1ccc(O)c(O)c1`, the Potency was inconclusive: 0.411 µM [activator, partial curve, poor fit]. In the case of `CCN(c1ccccc1)S(=O)(=O)c1ccc(Cl)c(C(=O)N(CC2CCCO2)C2CCS(=O)(=O)C2)c1` (stereo not given), the Potency was inconclusive: 15.8 µM [inhibitor, single point]. With `Cc1nn(-c2ccc(NC(=O)c3ccncc3)cc2)c(C)c1Cl` the Potency was inconclusive: 28.2 µM [inhibitor, partial curve, poor fit]. In the case of `COc1ccc(C(=O)CC2(O)C(=O)N(Cc3cccc(C(F)(F)F)c3)c3ccccc32)cc1` (stereo not given), the Potency was inconclusive: 12.6 µM [inhibitor, single point]. In the case of `CC(=O)N1CCc2cc(Br)cc(S(=O)(=O)N3CCC(C(=O)Nc4ccc(C(C)C)cc4)CC3)c21`, the “activity change, negative = inhibition” value was inactive: -23.1% [at 46.1 µM]. With `Cc1cc(N(CCCl)CCCl)ccc1/C=N/N=C(\N)c1cnccn1` the Potency was active: 2.24 µM. In the case of `CCOc1ccc(CN(C)C(=O)CNC(=O)C2CCCCC2)cc1`, the “activity change, negative = inhibition” value was inactive: 2.99% [at 46.1 µM]. With `COc1ccccc1NC(=S)N(Cc1ccccc1)Cc1cccs1` the Potency was active: 1.41 µM. With `O=C(COC(=O)c1c2c(nc3ccccc13)/C(=C\c1ccco1)CC2)NC1CCCC1` the Potency was inconclusive: 0.112 µM [inhibitor, full curve, poor fit]. With `O=C(Nc1c(Cl)cc(Cl)cc1-c1nc2ccccc2s1)c1ccc(Br)o1` the Potency was inconclusive: 0.461 µM [inhibitor, partial curve, poor fit]. In the case of `COc1ccc(NC(=O)CCc2nnc3ccc(NCc4ccco4)nn23)cc1OC`, the Potency was inconclusive: 35.5 µM [inhibitor, single point]. For `COc1ccc(-c2nc3c(c4nnc(SC(C)C(=O)Nc5ccc(C)cc5)n24)COC(C)(C)C3)cc1` (stereo not given), the “activity change, negative = inhibition” value was inactive: -25.4%. With `C(#CCN1CCC(Cc2ccccc2)CC1)COCCOCc1ccccc1` the Potency was inconclusive: 1.26 µM [activator, full curve]. In the case of `Cn1ncc2c(N3CCN(c4ccccc4F)CC3)ncnc21`, the Potency was inconclusive: 25.9 µM [inhibitor, single point].
